Experimental data as given in PubChem BioAssay AID330 (DTP/NCI, 2004).
The list is a part of this screen's results and no random one: it gathers tests that were run many times, whatever their T/C, doses with no T/C, and many T/C values between a quarter and a half above the control. Further doses and runs are listed elsewhere. T/C: endpoint of the treated group in % of that of the vehicle group. Some doses have a count of surviving animals in place of a T/C: the source holds a T/C of zero for them, seemingly a mark for toxic or unscored doses. Some doses without a T/C left all or most animals alive at the check, yet need not have been tolerated: the source hardly ever lists a survival T/C far under the control, and the zero likely stands for such cases as well. Counts of survivors are from the toxicity check (mostly the fifth day) where no day follows; animals may have died later. Schedule codes are those of the source, taken here to give the interval after Q, in days (D) or hours (H), and the number of doses after X. Where survival is the endpoint, the PubChem record calls one and a half times the control and up active, and a quarter to a half above the control has no call in these data; cut-offs in other NCI protocols can differ. Some entries hold several experiments; the values are given in rising order. Some T/C values are followed by the survivors on the day toxicity was checked, most often the fifth; where none is given, no animal had died by that day.

Test system: P388 leukemia ip, CD2F1 mice, survival T/C
Assay: NCI In Vivo Anticancer Drug Screen. Data for tumor model P388 Leukemia (intraperitoneal) in CD2F1 (CDF1) mice
Settings: T/C endpoint: median survival time, higher T/C = longer survival
[1] = dose: 200.0 mg/kg/injection, schedule: Q01DX005 (ip), vehicle: saline with Tween-80
[2] = dose: 200.0 mg/kg/injection, schedule: Q01DX001 (ip), vehicle: Klucel (hydroxypropylcellulose) (HPC)
[3] = dose: 50.0 mg/kg/injection, schedule: Q01DX009 (ip), vehicle: Klucel (hydroxypropylcellulose) (HPC)
[4] = dose: 100.0 mg/kg/injection, schedule: Q01DX009 (ip), vehicle: Klucel (hydroxypropylcellulose) (HPC)
[5] = dose: 200.0 mg/kg/injection, schedule: Q01DX009 (ip), vehicle: Klucel (hydroxypropylcellulose) (HPC)
[6] = dose: 200.0 mg/kg/injection, schedule: Q01DX005 (ip), vehicle: Klucel (hydroxypropylcellulose) (HPC)
[7] = dose: 240.0 mg/kg/injection, schedule: Q01DX005 (ip), vehicle: saline
[8] = dose: 120.0 mg/kg/injection, schedule: Q01DX005 (ip), vehicle: saline
[9] = dose: 12.5 mg/kg/injection, schedule: Q01DX009 (ip), vehicle: saline with Tween-80
[10] = dose: 25.0 mg/kg/injection, schedule: Q01DX009 (ip), vehicle: saline with Tween-80

With `O=C1c2ccccc2-c2c1nc1ccccc1[n+]2[O-]` the survivor count (dose: 50.0 mg/kg/injection, schedule: Q01DX005 (ip), vehicle: saline) was 0 of 6, the survivor count (dose: 100.0 mg/kg/injection, schedule: Q01DX005 (ip), vehicle: saline) was 0 of 6 and the survivor count (dose: 200.0 mg/kg/injection, schedule: Q01DX005 (ip), vehicle: saline) was 0 of 6.

In the case of `C/C=C1/CN2C3CC45c6ccccc6N(C)C4C2CC1C3C5O` (centres undefined), the survivor count [1] is reported as 3 of 6.

With `O=C(N/N=C\c1c(O)ccc2ccccc12)c1ccncc1` the survivor count [1] was 6 of 6.

In the case of `CC(C)c1cc(C(=O)[O-])c(O)c(C(C)C)c1.CC(C)c1cc(C(=O)[O-])c(O)c(C(C)C)c1.CC1OC(O[C@H]2/C=C/C=C/C=C/C=C/C=C/C=C/C=C/C(C)[C@@H](O)C(C)C(C)OC(=O)C[C@H](O)C[C@H](O)CC[C@@H](O)[C@H](O)C[C@H](O)C[C@]3(O)CC(O)[C@@H](C(=O)O)[C@H](C2)O3)C(O)C(N)C1O.[Cu+2]` (some centres undefined), the survivor count (dose: 100.0 mg/kg/injection, schedule: Q04DX002 (ip), vehicle: saline with Tween-80) is reported as 3 of 6, the survivor count (dose: 200.0 mg/kg/injection, schedule: Q04DX002 (ip), vehicle: saline with Tween-80) is reported as 1 of 6 and the survivor count (dose: 400.0 mg/kg/injection, schedule: Q04DX002 (ip), vehicle: saline with Tween-80) is reported as 0 of 6.

With `Cn1nc(-c2ccc(Cl)c(Cl)c2)nc2c(=O)n(C)c(=O)nc1-2` the survivor count (dose: 100.0 mg/kg/injection, schedule: Q01DX001 (ip), vehicle: Klucel (hydroxypropylcellulose) (HPC)) was 2 of 6 and the survivor count [2] was 0 of 6.

In the case of `Nc1ccncc1N`, the survivor count (dose: 25.0 mg/kg/injection, schedule: Q01DX009 (ip), vehicle: saline) is reported as 0 of 6 and the survivor count (dose: 40.0 mg/kg/injection, schedule: Q01DX009 (ip), vehicle: saline) is reported as 0 of 6.

With `CCC(C)(C)N=C(Nc1cccnc1)Nc1ncccn1` the survivor count (dose: 400.0 mg/kg/injection, schedule: Q04DX003 (ip), vehicle: saline) was 4 of 6.

In the case of `O=C(O)C(S)c1ccc2ccccc2c1` (centres undefined), the survivor count (dose: 400.0 mg/kg/injection, schedule: Q01DX009 (ip), vehicle: Klucel (hydroxypropylcellulose) (HPC)) is reported as 4 of 6.

`CCOC(=O)/C(N)=N/N=Nc1ccc([N+](=O)[O-])cc1` was tested, and the survivor count (dose: 200.0 mg/kg/injection, schedule: Q01DX009 (ip), vehicle: saline) was 6 of 6.

With `O=C(O)c1ccc(S(=O)(=O)OCCCl)cc1` the survivor count [3] was 6 of 6, the survivor count [4] was 5 of 6 and the survivor count [5] was 0 of 6.

For `CNC(=S)NNc1cccc([N+](=O)[O-])c1`, the survivor count (dose: 400.0 mg/kg/injection, schedule: Q01DX009 (ip), vehicle: other) was 2 of 6.

With `Cc1cccc(-n2c(C)nc3[nH]cc(C)c3c2=N)c1` the survivor count [6] was 0 of 6.

`O=C(O)c1cocc1C(=O)O` was tested, and the survivor count [7] was 6 of 6.

With `CCC1=C(C)CCN(C)C1Cc1ccc(OC)cc1` (centres undefined) the survivor count (dose: 120.0 mg/kg/injection, schedule: Q01DX005 (ip), vehicle: Klucel (hydroxypropylcellulose) (HPC)) was 0 of 6 and the survivor count (dose: 240.0 mg/kg/injection, schedule: Q01DX005 (ip), vehicle: Klucel (hydroxypropylcellulose) (HPC)) was 0 of 6.

With `O=S1(=O)C(c2ccc(F)cc2)=C(O)c2cc3ccccc3nc21` the survivor count (dose: 200.0 mg/kg/injection, schedule: Q01DX009 (ip), vehicle: saline with Tween-80) was 3 of 6.

With `CN1C(=O)c2c(ccc3c2OCO3)[C@@]2(C)C(=O)Cc3cc4c(cc3[C@H]12)OCO4` the survivor count (dose: 25.0 mg/kg/injection, schedule: Q01DX005 (ip), vehicle: Klucel (hydroxypropylcellulose) (HPC)) was 6 of 6.

In the case of `CCOP(=O)(OCC)C1CCC(=O)O1` (centres undefined), the survivor count [8] is reported as 0 of 6 and the survivor count [7] is reported as 0 of 6.

For `O=c1cc[nH]c(=O)o1`, the survivor count (dose: 100.0 mg/kg/injection, schedule: Q01DX009 (ip), vehicle: water) was 0 of 6.

In the case of `O=c1cc(O)c1=O`, the survivor count [9] is reported as 5 of 6, the survivor count [10] is reported as 0 of 6 and the survivor count (dose: 50.0 mg/kg/injection, schedule: Q01DX009 (ip), vehicle: saline with Tween-80) is reported as 0 of 6. The survivor count (dose: 100.0 mg/kg/injection, schedule: Q01DX009 (ip), vehicle: saline with Tween-80) was 0 of 6.

With `COc1cc2c(c(OC)c1OC)-c1ccc(OC)c(=O)cc1C(=O)CC2` the T/C (dose: 1.25 mg/kg/injection, schedule: Q01DX009 (ip), vehicle: Klucel (hydroxypropylcellulose) (HPC)) was 125 and 133 % of control, the T/C (dose: 2.5 mg/kg/injection, schedule: Q01DX009 (ip), vehicle: Klucel (hydroxypropylcellulose) (HPC)) was 130 and 140 % of control and the T/C (dose: 5.0 mg/kg/injection, schedule: Q01DX009 (ip), vehicle: Klucel (hydroxypropylcellulose) (HPC)) was 149 % of control. The survivor count (dose: 10.0 mg/kg/injection, schedule: Q01DX009 (ip), vehicle: Klucel (hydroxypropylcellulose) (HPC)) was 6 of 6 and the survivor count (dose: 20.0 mg/kg/injection, schedule: Q01DX009 (ip), vehicle: Klucel (hydroxypropylcellulose) (HPC)) was 3 of 6.

In the case of `O=C(O)c1cc[c]([Hg][S]c2ncnc3nc[nH]c23)cc1`, the T/C (dose: 6.25 mg/kg/injection, schedule: Q01DX009 (ip), vehicle: saline with Tween-80) is reported as 127 % of control, the T/C [9] is reported as 126 % of control [5 of 6 alive] and the survivor count [10] is reported as 1 of 6. The survivor count [3] was 1 of 6, the survivor count [4] was 0 of 6 and the survivor count [5] was 0 of 6.

`COc1cc2c[n+](C)c3c4cc(O)ccc4ccc3c2cc1OC` was tested, and the T/C (dose: 5.0 mg/kg/injection, schedule: Q01DX009 (ip), vehicle: water) was 133 % of control, the T/C (dose: 10.0 mg/kg/injection, schedule: Q01DX009 (ip), vehicle: water) was 133 % of control and the T/C (dose: 20.0 mg/kg/injection, schedule: Q01DX009 (ip), vehicle: water) was 137 % of control. For the same molecule, the T/C (dose: 40.0 mg/kg/injection, schedule: Q01DX009 (ip), vehicle: water) was 142 % of control and the T/C (dose: 80.0 mg/kg/injection, schedule: Q01DX009 (ip), vehicle: water) was 142 % of control.

For `O=C(O)c1c[nH]c2ccc([N+](=O)[O-])cc2c1=O`, the survivor count (dose: 16.9 mg/kg/injection, schedule: Q01DX009 (ip), vehicle: Klucel (hydroxypropylcellulose) (HPC)) was 2 of 6, the survivor count (dose: 33.75 mg/kg/injection, schedule: Q01DX009 (ip), vehicle: Klucel (hydroxypropylcellulose) (HPC)) was 4 of 6 and the survivor count (dose: 67.5 mg/kg/injection, schedule: Q01DX009 (ip), vehicle: Klucel (hydroxypropylcellulose) (HPC)) was 3 of 6. For the same molecule, the survivor count (dose: 90.0 mg/kg/injection, schedule: Q01DX009 (ip), vehicle: Klucel (hydroxypropylcellulose) (HPC)) was 0 of 6, the survivor count (dose: 135.0 mg/kg/injection, schedule: Q01DX009 (ip), vehicle: Klucel (hydroxypropylcellulose) (HPC)) was 3 of 6 and the survivor count [5] was 5 of 6. The survivor count (dose: 300.0 mg/kg/injection, schedule: Q01DX009 (ip), vehicle: Klucel (hydroxypropylcellulose) (HPC)) was 2 of 6.

For `O=S(=O)(F)c1ccc(O)cc1`, the survivor count [8] was 0 of 6 and the survivor count [7] was 0 of 6.

In the case of `Cc1ccc(N=Cc2cccs2)cc1`, the survivor count [5] is reported as 2 of 6.

In the case of `N#CC(c1ccc2c(c1)OCO2)N1CCCC1` (centres undefined), the survivor count (dose: 50.0 mg/kg/injection, schedule: Q01DX001 (ip), vehicle: Klucel (hydroxypropylcellulose) (HPC)) is reported as 2 of 6 and the survivor count [2] is reported as 2 of 6.

`O=C1SC(Nc2cccc([N+](=O)[O-])c2)/C(=N\N=C2/C(Nc3cccc([N+](=O)[O-])c3)SC(=O)N2Cc2ccccc2)N1Cc1ccccc1` (centres undefined) was tested, and the survivor count [6] was 6 of 6.

With `CCOC(=O)/C(C#N)=C/N1CCCC1` the survivor count (dose: 50.0 mg/kg/injection, schedule: Q01DX005 (ip), vehicle: saline with Tween-80) was 4 of 6, the survivor count (dose: 100.0 mg/kg/injection, schedule: Q01DX005 (ip), vehicle: saline with Tween-80) was 2 of 6 and the survivor count [1] was 0 of 6.
